PubChem BioAssay AID1224830, NIAID | 2016
The whole screen tested about 18,000 reagents; below is a random part of them. About 2,900 of them (16%) count as active. 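Calls are made per well; low scores hint the gene aids the LPS response, high scores that it dampens it.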 A number with no mark means an inactive call. Repeated entries: four replicate wells of each siRNA pool.

Test: 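Genes whose knock-down alters the TNF-alpha reporter response to LPS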 (primary screen)
Cells: human THP-1 monocytic leukaemia cells, TNF dual-luciferase reporter clone, PMA-differentiated to macrophage-like cells
Reagent: siRNA pool against human genes, 50 nM
Time to read-out: LPS for 4 h, given about 3 days after siRNA transfection
Conditions: bacterial LPS (TLR4 ligand), 10 ng/ml
Read-out: 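TNF firefly reporter luminescence divided by renilla, normalised to the plate median, then turned into a robust z-score for each replicate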
Scale: TNF reporter robust z-score: higher = stronger TNF reporter response to LPS
Hit rule: 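Each well counts as active if its z-score is over 2.8 or under -1.5; controls are left without a call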

| Target gene | TNF reporter robust z-score |
| --- | --- |
| DRC1 | 3.82 (active) |
| DRC1 | 2.62 |
| DRC1 | 3.02 (active) |
| DRC1 | 2.71 |
| GPBP1 | 0.55 |
| GPBP1 | -0.16 |
| GPBP1 | -0.3 |
| GPBP1 | 0.61 |
| OR4F4 | 1.91 |
| OR4F4 | -0.39 |
| OR4F4 | 1.3 |
| OR4F4 | 0.36 |
| EMCN | -0.66 |
| EMCN | -0.09 |
| EMCN | 3.28 (active) |
| EMCN | 0.06 |
| TEX30 | -0.03 |
| TEX30 | -1.04 |
| TEX30 | -1.25 |
| TEX30 | -1.05 |
| TEX30 | 2.45 |
| TEX30 | 0.75 |
| TEX30 | 1.07 |
| TEX30 | -0.31 |
| IL20 | -0.65 |
| IL20 | -0.58 |
| IL20 | -0.8 |
| IL20 | 0.05 |
| LRRC24 | -1.29 |
| LRRC24 | -0.47 |
| LRRC24 | -0.9 |
| LRRC24 | 1.56 |
| ODAPH | -1.72 (active) |
| ODAPH | -1.43 |
| ODAPH | -1.09 |
| ODAPH | -1.54 (active) |
| RRM1 | -0.08 |
| RRM1 | -0.39 |
| RRM1 | -0.26 |
| RRM1 | 0.56 |
| AP1S1 | 1.03 |
| AP1S1 | 2.48 |
| AP1S1 | 0.46 |
| AP1S1 | 0.5 |
| ABCA1 | -0.5 |
| ABCA1 | -0.57 |
| ABCA1 | -0.77 |
| ABCA1 | -0.08 |
| CENPI | -0.22 |
| CENPI | -0.45 |
| CENPI | 0.49 |
| CENPI | 0.31 |
| KIFC3 | -0.11 |
| KIFC3 | 0.73 |
| KIFC3 | 1.12 |
| KIFC3 | 1.03 |
| RNF2 | 2.12 |
| RNF2 | 0.68 |
| RNF2 | 0.82 |
| RNF2 | 0.66 |
| PIP5K1A | 0.35 |
| PIP5K1A | 1.18 |
| PIP5K1A | 1.29 |
| PIP5K1A | 0.11 |
| PRC1 | 2.21 |
| PRC1 | 3.36 (active) |
| PRC1 | 1.93 |
| PRC1 | 1.45 |
| MAL2 | 0.58 |
| MAL2 | -0.12 |
| MAL2 | -0.11 |
| MAL2 | 0.52 |

Continued, starting with the last 3 of the part before.
| Target gene | TNF reporter robust z-score |
| --- | --- |
| MAL2 | -0.12 |
| MAL2 | -0.11 |
| MAL2 | 0.52 |
| GLS2 | 1.98 |
| GLS2 | 1.71 |
| GLS2 | 1.59 |
| GLS2 | 1.06 |
| ZSWIM8 | -1.2 |
| ZSWIM8 | 1.28 |
| ZSWIM8 | 0.96 |
| ZSWIM8 | -0.17 |
| SIRPD | 3.26 (active) |
| SIRPD | 4.82 (active) |
| SIRPD | 4.97 (active) |
| SIRPD | 5.74 (active) |
| XAB2 | -0.41 |
| XAB2 | -0.49 |
| XAB2 | -0.88 |
| XAB2 | -0.93 |
| PFKL | 0.69 |
| PFKL | 1.51 |
| PFKL | 3.41 (active) |
| PFKL | 0.89 |
| EML4 | -0.73 |
| EML4 | -0.34 |
| EML4 | 0.11 |
| EML4 | 0.04 |
| ACTB | 1.39 |
| ACTB | -0.41 |
| ACTB | -0.34 |
| ACTB | 0.66 |
| PLOD1 | -0.83 |
| PLOD1 | -0.8 |
| PLOD1 | -0.52 |
| PLOD1 | -0.99 |
| FDXR | -0.26 |
| FDXR | 0.66 |
| FDXR | 0.22 |
| FDXR | 1.21 |
| SEC23IP | 0.8 |
| SEC23IP | 0.23 |
| SEC23IP | 0.1 |
| SEC23IP | 0.21 |
| SYAP1 | -0.41 |
| SYAP1 | 0.95 |
| SYAP1 | 1.3 |
| SYAP1 | 0.05 |
| TENT5B | -1.13 |
| TENT5B | -0.4 |
| TENT5B | -1.27 |
| TENT5B | 0.08 |
| SPANXN3 | -0.83 |
| SPANXN3 | -0.49 |
| SPANXN3 | 0.47 |
| SPANXN3 | 1.27 |
| PRSS23 | 5.92 (active) |
| PRSS23 | 2.99 (active) |
| PRSS23 | 2.32 |
| PRSS23 | 1.92 |
| LGSN | -1.14 |
| LGSN | -0.47 |
| LGSN | -0.95 |
| LGSN | -0.88 |
| MTMR1 | -0.23 |
| MTMR1 | 2.51 |
| MTMR1 | 0.68 |
| MTMR1 | 0.64 |
| NAV3 | 1 |
| NAV3 | 1.04 |
| NAV3 | 0.41 |
| NAV3 | 1.11 |
